Assay results from article PMC12193794.
These are yes or no findings as the source states them, for the method shown. In cells and extracts the contact can be indirect. Some binding calls cover weakened binding; strength is not graded here.

Sequences of proteins named here, by UniProt entry; tags and fusion partners are left off. Residues count along the entry.
UniProt P07174, residues 30-425: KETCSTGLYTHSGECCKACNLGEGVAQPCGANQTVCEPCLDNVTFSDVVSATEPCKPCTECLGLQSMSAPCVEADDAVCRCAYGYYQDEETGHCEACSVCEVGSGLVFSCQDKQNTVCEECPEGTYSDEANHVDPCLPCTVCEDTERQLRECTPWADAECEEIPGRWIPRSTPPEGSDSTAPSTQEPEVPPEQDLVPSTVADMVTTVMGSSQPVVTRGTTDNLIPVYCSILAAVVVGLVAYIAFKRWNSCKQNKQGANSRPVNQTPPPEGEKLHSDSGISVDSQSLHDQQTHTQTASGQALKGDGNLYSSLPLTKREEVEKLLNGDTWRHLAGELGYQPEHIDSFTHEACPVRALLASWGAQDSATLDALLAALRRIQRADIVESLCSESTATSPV

How the values were obtained:
[1] = molecular target: p75 neurotrophin receptor (p75^NTR) (rat (endogenous in primary bladder URO and SMC of Sprague-Dawley rats)) (UniProt P07174); assay: co-IP; lysate (RIPA) of primary rat urothelial cells (URO); 200-400 ug protein precipitated overnight at 4 °C with anti-p75^ICD rabbit antibody and protein G agarose, blot for TRAF6; cells with or without THX-B (5 ug/mL) preincubation and LPS (100 ng/mL, 5 min)
[2] = molecular target: p75 neurotrophin receptor (p75^NTR) (rat (endogenous in primary bladder URO and SMC of Sprague-Dawley rats)) (UniProt P07174); assay: co-IP; lysate (RIPA) of primary rat detrusor smooth muscle cells (SMC); 200-400 ug protein precipitated overnight at 4 °C with anti-p75^ICD rabbit antibody and protein G agarose, blot for TRAF6; cells with or without THX-B (5 ug/mL) preincubation and LPS (100 ng/mL), same incubation conditions as for URO

B1: tumor necrosis factor receptor-associated factor 6 (TRAF6) (protein, UniProt B5DF45 1-530)
chain: MSLLNCENSCASSQSSSDCCAAMANSCSAAMKDDSVSGCVSTGNLSSSFMEEIQGYDVEFDPPLESKYECPICLMALREAVQTPCGHRFCKACITKSIRDAGHKCPVDNEILLENQLFPDNFAKREILSLTVKCPNKGCVQKMELRHLEDHQVHCEFALVICPQCQRFFQKCQINKHIIEDCPRRQVSCVNCAVPMPYEEKEIHDQSCPLANIICEYCGTILIREQMPNHYDLDCPTAPVPCTFSVFGCHEKMQRNHLARHLQENTQLHMRLLAQAVHNVNLSLRPCDASSPSRGCRPEDPNYEETVKQLEGRLVRQDHQIRELTAKMETQSMHVSELKRTIRSLEDKVAEMEAQQCNGIYIWKIGNFGMHLKSQEEERPVVIHSPGFYTGRPGYKLCMRLHLQLPTAQRCANYISLFVHTMQGEYDSHLPWPFQGTIRLTILDQSEAVIRQNHEEVMDAKPELLAFQRPTIPRNPKGFGYVTFMHLEALRQGTFIKDDTLLVRCEVSTRFDMGGLRKEGFQPRSTDAGV
- binding [1]: binds
- binding [2]: binds
